Experimental data taken from patent US5411707A, “Vacuum extractor incorporating a condenser column” (priority 1994, dated 1995).
Values joined by “and” are separate entries in the source; they are usually repeats but may differ in a detail not shown here. Equal entries are not always repeated. Where two headings read alike, the source gives them in different places.

How the values were obtained:
[1] = Recovery of volatile organic analytes from spiked soil (Table 5); conditions: 50 ppb, condenser -10° C.; for Recovery, Soil/Oil Water: 5 g soil + 1 g cod liver oil + water slurry; for Recovery, Soil/Oil: 5 g soil + 1 g cod liver oil, spiked using 0.2 ml water; for Recovery, Soil/Water: 5 g soil + 5 ml water slurry, 10 min
[2] = Recovery of volatile organic analytes from spiked water and cod liver oil/water emulsion (Table 3); conditions: 10 min, condenser -10° C., ± one sigma; for Recovery, H2O/Oil 5 mL: 1 gram cod liver oil and 5 ml water emulsion; for Recovery, Water 5 mL: 5 mL water, relative to internal standard d3-vinylchloride; for Recovery, Water 20 mL: 20 mL water, relative to d3-vinylchloride; for Recovery, H2O/Oil 20 mL: 1 g cod liver oil and 20 ml water emulsion
[3] = Vacuum distillation recovery from spiked water and spiked soil, GC/MS (Table 2); conditions: 50 ppb, 10 min distillation, condenser -15° C.; for 5 G SOIL RECOVERY: 5 g soil + 1 ml water
[4] = Method detection limits for volatile organic analytes in soil (Table 7); conditions: 4 ppb, average of three nonconsecutive-day studies, values marked ^c: MDL exceed concentration studies
[5] = Method detection limits for volatile organic analytes in water (Table 6); conditions: 5 mL water, 4 ppb; for Method Detection Limit, External Standard Method: average of three nonconsecutive-day studies; for Method Detection Limit, Internal Standard Method: d3-vinylchloride internal standard
[6] = 1 gram cod liver oil, composite of 25, 50 and 200 ppb spikes, 10 min, condenser -10° C.

Row | Compound | 5 G SOIL RECOVERY [3] | 5 ML WATER RECOVERY [3] | further results
1 | [2H]c1c([2H])c([2H])c(Cl)c([2H])c1[2H] [Chlorobenzene-d5, reference compound] |  |  | Recovery, Soil/Oil Water [1]: 34 ± 5%; Recovery, Soil/Oil [1]: 50 ± 10%; Recovery, Soil/Water [1]: 63 ± 15%; Oil Recovery [6]: 24 ± 4%; Recovery, H2O/Oil 5 mL [2]: 41 ± 10%; Recovery, Water 5 mL [2]: 90 ± 11%; Recovery, Water 20 mL [2]: 88 ± 20%
2 | C=C(C)C#N [Methy acrylonitrile] | 74.7% | 64.2% | 
3 | CCCCc1ccccc1 [n-Butylbenzene] | 59.2% | 55.0% | 
4 | CCCN(CCC)N=O [n-Nitroso-di-n-propylamine] | 5.6% | 4.4% | 
5 | ClCCOCCCl [bis(2-Chloroethyl) ether] | 19.5% | 10.6% | 
6 | Oc1ccccc1 [Phenol] | 4.6% | 6.2% | 
7 | Fc1ccc(F)cc1 [1,4-Difluorobenzene, reference compound] |  |  | Recovery, Soil/Oil Water [1]: 48 ± 7%; Recovery, Soil/Oil [1]: 77 ± 10%; Recovery, Soil/Water [1]: 54 ± 13%; Oil Recovery [6]: 49 ± 5%; Recovery, H2O/Oil 5 mL [2]: 65 ± 10%; Recovery, Water 5 mL [2]: 89 ± 11%; Recovery, Water 20 mL [2]: 83 ± 17%
8 | C=CCCl [Allyl chloride] | 81.0% | 85.9% | 
9 | Clc1ccccc1Cl [1,2-Dichlorobenzene] | 66.7% | 52.1% | 
10 | O=NN1CCOCC1 [n-Nitrosomorpholine] | 3.5% | 4.2% | 
11 | Nc1ccccc1[N+](=O)[O-] [2-Nitroaniline] | 4.4% | 6.7% | 
12 | CCC(C)=O [2-Butanone] |  |  | Recovery, Soil/Oil [1]: 60 ± 63%; Recovery, H2O/Oil 5 mL [2]: 47 ± 15%; Recovery, Water 5 mL [2]: 79 ± 45%; Recovery, Water 20 mL [2]: 88 ± 13%
13 | O=NN1CCCCC1 [n-Nitroso-piperidine] | 4.1% | 4.5% | 
14 | CC#N [Acetonitrile] | 76.9% | 68.0% | 
15 | Clc1ccc(Cl)cc1 [1,4-dichlorobenzene, reference compound] |  |  | Recovery, Soil/Oil Water [1]: 22 ± 4%; Recovery, Soil/Oil [1]: 17 ± 4%; Recovery, Soil/Water [1]: 79 ± 13%; Recovery, H2O/Oil 5 mL [2]: 29 ± 9%; Recovery, Water 5 mL [2]: 109 ± 19%; Recovery, Water 20 mL [2]: 97 ± 20%
16 | CCN(CC)N=O [n-Nitroso-di-n-ethylamine] | 7.3% | 5.6% | 
17 | CCC#N [Propionitrile] | 49.7% | 19.0% | 
18 | Clc1cc(Cl)c(Cl)c(Cl)c1Cl [Pentachlorobenzene] | 17.1% | 4.6% | 
19 | [2H]c1c([2H])c([2H])c(C([2H])([2H])[2H])c([2H])c1[2H] [Toluene-d8, reference compound] |  |  | Recovery, Soil/Oil Water [1]: 39 ± 4%; Recovery, Soil/Oil [1]: 62 ± 15%; Recovery, Soil/Water [1]: 50 ± 14%; Oil Recovery: 41 ± 5; Recovery, H2O/Oil 20 mL [2]: 54 ± 8%; Recovery, H2O/Oil 5 mL [2]: 52 ± 9%; Recovery, Water 5 mL [2]: 93 ± 11%; Recovery, Water 20 mL [2]: 85 ± 18%
20 | Nc1ccccc1 [Aniline] | 9.2% | 17.2% | 
21 | c1ccccc1 [Benzene] |  |  | Recovery, Soil/Oil Water [1]: 83 ± 5%; Recovery, Soil/Water [1]: 54 ± 12%; Oil Recovery: 81 ± 12; Recovery, H2O/Oil 20 mL [2]: 68 ± 10%; Recovery, H2O/Oil 5 mL [2]: 80 ± 12%; Recovery, Water 5 mL [2]: 86 ± 9%; Recovery, Water 20 mL [2]: 83 ± 15%

Row | Compound | 5 G SOIL RECOVERY [3] | 5 ML WATER RECOVERY [3] | further results
22 | c1ccncc1 [Pyridine] | 9.4% | 8.9% | 
23 | c1ccc2c(c1)oc1ccccc12 [Dibenzofuran] | 15.9% | 3.1% | 
24 | CCN(C)N=O [n-Nitrosodi-methylethylamine] | 6.3% | 6.0% | 
25 | BrCBr [Dibromomethane] | 75.2% | 50.5% | 
26 | CC(C)(C)c1ccccc1 [tert-Butlybenzene] | 70.6% | 55.5% | 
27 | Cl/C=C/Cl [trans-1,2-Trichloroethane] |  |  | Recovery, Soil/Oil Water [1]: 63 ± 5%; Recovery, Soil/Oil [1]: 105 ± 14%; Recovery, Soil/Water [1]: 59 ± 19%; Oil Recovery [6]: 79 ± 14%
28 | Cc1ccc(C(C)C)cc1 [para-iso-Propyl toluene] | 63.8% | 56.6% | 
29 | Oc1ccccc1Cl [2-Chlorophenol] | 5.6% | 6.9% | 
30 | OCc1ccccc1 [Benzyl alcohol] | 5.6% | 4.2% | 
31 | CCCCN(CCCC)N=O [n-Nitroso-di-n-butylamine] | 8.3% | 1.4% | 
32 | CC(C)CO [Isobutanol] | 21.0% | 12.2% | 
33 | Clc1cccc(Cl)c1 [1,3-Dichlorobenzene] | 69.4% and 70.4% | 54.1% and 53.3% | 
34 | Cc1ccccn1 [2-Picoline] | 4.1% | 11.7% | 
35 | Brc1ccccc1 [Bromobenzene] | 77.2% | 56.6% | 
36 | CC(=O)c1ccccc1 [Acetophenone] | 8.3% | 6.2% | 
37 | O=NN1CCCC1 [n-Nitroso-pyrrolidine] | 3.4% | 3.2% | 
38 | ClCCOCOCCCl [bis-2-Chloroethoxy methane] | 3.7% | 4.3% | 
39 | CCCc1ccccc1 [n-Propylbenzene] | 72.0% | 58.6% | 
40 | Cc1ccc(C)c(C)c1 [1,2,4-Trimethyl benzene] | 70.6% | 55.8% | 
41 | Cc1cc(C)cc(C)c1 [1,3,5-Trimethyl benzene] | 72.1% | 57.3% | 
42 | Cc1cc(O)ccc1Cl [4-Chloro-3-methyl phenol] | 14.2% | 5.4% | 

Row | Compound | 5 G SOIL RECOVERY [3] | 5 ML WATER RECOVERY [3] | further results
43 | CCOCC [Diethyl ether] | 83.2% | 77.5% | 
44 | Cc1ccc(Cl)cc1 [4-Chlorotoluene] | 73.5% | 56.6% | 
45 | C1COCCO1 [1,4-Dioxane] | 24.3% | 15.6% | 
46 | CCC(C)c1ccccc1 (stereo not drawn) [sec-butylbenzene] | 70.5% | 56.2% | 
47 | Cc1ccccc1O [2-Methylphenol] | 2.6% | 3.0% | 
48 | Nc1ccc(Cl)cc1 [4-Chloroaniline] | 15.4% | 5.0% | 
49 | C=C(C)C(=O)OCC [Ethyl methacrylate] | 50.7% | 39.7% | 
50 | ClCCl [Methylene Chloride] |  |  | MDL, External Standard Method [4]: 3.3 ppb; MDL, Internal Standard Method [4]: 4.0 ppb; Recovery, Soil/Oil Water [1]: 84 ± 5%; Recovery, Soil/Oil [1]: 114 ± 12%; Recovery, Soil/Water [1]: 66 ± 15%; Method Detection Limit, External Standard Method [5]: 3.1 PPb; Method Detection Limit, Internal Standard Method [5]: 3.0 PPb; Recovery, H2O/Oil 20 mL [2]: 111 ± 30%; Recovery, H2O/Oil 5 mL [2]: 111 ± 20%; Recovery, Water 5 mL [2]: 72 ± 13%; Recovery, Water 20 mL [2]: 87 ± 10%
51 | c1ccc2ccccc2c1 [Naphthalene] | 22.7% | 18.9% | 
52 | Cl/C=C/Cl [trans-1,2-Dichloroethene] |  |  | MDL, External Standard Method [4]: 3.2 ppb; MDL, Internal Standard Method [4]: 2.2 ppb; Method Detection Limit, External Standard Method [5]: 3.0 PPb; Method Detection Limit, Internal Standard Method [5]: 2.1 PPb; Recovery, H2O/Oil 20 mL [2]: 70 ± 16%; Recovery, H2O/Oil 5 mL [2]: 103 ± 17%; Recovery, Water 5 mL [2]: 84 ± 6%; Recovery, Water 20 mL [2]: 88 ± 11%
53 | CC(C)c1ccccc1 [iso-Propylbenzene] | 72.8% | 64.1% | 
54 | C=C(C)C(=O)OC [Methyl methacrylate] | 72.6% | 50.6% | 
55 | Cc1ccccc1N [o-Toluidine] | 4.8% | 4.0% | 
56 | CC(C)=O [Acetone] |  |  | Recovery, Soil/Oil Water [1]: 50 ± 13%; Recovery, H2O/Oil 20 mL [2]: 87 ± 42%; Recovery, H2O/Oil 5 mL [2]: 95 ± 35%; Recovery, Water 5 mL [2]: 70 ± 23%; Recovery, Water 20 mL [2]: 60 ± 41%
57 | Clc1cccc(Cl)c1Cl [1,2,3-Trichloro benzene] | 25.6% | 21.8% | 
58 | C=CC#N [Acrylonitrile] | 61.8% | 30.3% | 
59 | CN(C)N=O [n-Nitrosodi-methylamine] | 7.3% | 2.6% | 
60 | Cc1ccc(O)c(C)c1 [2,4-Dimethylphenol] | 7.5% | 1.7% | 
61 | Clc1ccc(Cl)c(Cl)c1 [1,2,4-Trichloro-benzene] | 32.5% | 29.3% | 
62 | Oc1ccccc1F [2-Fluorophenol] | 8.2% | 5.4% | 
